Results taken from patent publication US20070224165A1, “Neuroprotective Effects of Gly-Pro-Glu Following Intravenous Infusion” (Neuren Pharmaceuticals Limited, priority 2003, published 2007).
Part of at least one peptide drawing is inferred or uncertain, most often the ends.

Columns and labels:
Format in all cases: in vivo, rat
HI injured rats [1] = experiment: Long-term histological outcome 21 days after HI injury; details: 3 mg/kg/h i.v. 1-5 h post HI, without bolus, n=6
HI injured rats [2] = experiment: Tissue damage scores 4 days after hypoxic-ischemic (HI) brain injury
HI injured rats [3] = experiment: Delayed administration of GPE 24-28 h after HI injury, tissue damage score; details: for damage score vs vehicle: 4 h i.v. infusion 12 mg/kg 24-28 h after HI
HI injured rats [4] = experiment: Immunohistochemistry of hippocampus after HI injury (caspase-3, TUNEL, isolectin B4, PCNA, GFAP); details: 3 mg/kg/h i.v. 1-5 h after HI, 4 days
[5] = iv bolus 15 mg/kg 2 h post HI, 4 d after HI
[6] = iv infusion 0.3 mg/kg/h 1-5 h post HI without initial bolus
[7] = iv infusion 3 mg/kg/h 1-5 h post HI with initial bolus 3 mg/kg, 4 d after HI
[8] = iv infusion 3 mg/kg/h 1-5 h post HI without initial bolus
[9] = iv infusion 3 mg/kg/h 3-7 h post HI
[10] = iv infusion 3 mg/kg/h 7-11 h post HI
[11] = iv infusion 30 mg/kg/h 1-5 h post HI without initial bolus

NCC(=O)N1CCC[C@H]1C(=O)N[C@@H](CCC(=O)O)C(=O)O [GPE, glycine-proline-glutamate]
average tissue damage scores 21 days after HI injury (HI injured rats [1]): 0.01±0.01 | extended treatment window (HI injured rats [2]; after HI injury, i.v. infusion): 7 to 11 h | tissue damage score, CA1-2 (HI injured rats [2]; [5]): 0.85 ± 0.38 | tissue damage score, CA3 (HI injured rats [2]; [5]): 0.93 ± 0.41 | tissue damage score, CA4 (HI injured rats [2]; [5]): 1.11 ± 0.49 | tissue damage score, DG (dentate gyrus) (HI injured rats [2]; [5]): 0.86 ± 0.43 | tissue damage score, LC (lateral cortex) (HI injured rats [2]; [5]): 0.52 ± 0.31 | tissue damage score, Striat (HI injured rats [2]; [5]): 0.50 ± 0.20 | tissue damage score, CA1-2 (HI injured rats [2]; [6]): 0.78 ± 0.43 | tissue damage score, CA3 (HI injured rats [2]; [6]): 0.94 ± 0.54 | tissue damage score, CA4 (HI injured rats [2]; [6]): 0.94 ± 0.58 | tissue damage score, DG (dentate gyrus) (HI injured rats [2]; [6]): 0.89 ± 0.59 | tissue damage score, LC (lateral cortex) (HI injured rats [2]; [6]): 0.93 ± 0.57 | tissue damage score, Striat (HI injured rats [2]; [6]): 0.33 ± 0.33 | tissue damage score, CA1-2 (HI injured rats [2]; [7]): 0.62 ± 0.24 | tissue damage score, CA3 (HI injured rats [2]; [7]): 0.42 ± 0.18 | tissue damage score, CA4 (HI injured rats [2]; [7]): 0.58 ± 0.24 | tissue damage score, DG (dentate gyrus) (HI injured rats [2]; [7]): 0.18 ± 0.14 | tissue damage score, LC (lateral cortex) (HI injured rats [2]; [7]): 0.21 ± 0.13 | tissue damage score, Striat (HI injured rats [2]; [7]): 0.59 ± 0.24 | tissue damage score, CA1-2 (HI injured rats [2]; [8]): 0.16 ± 0.13 | tissue damage score, CA3 (HI injured rats [2]; [8]): 0.06 ± 0.06 | tissue damage score, CA4 (HI injured rats [2]; [8]): 0.09 ± 0.07 | tissue damage score, DG (dentate gyrus) (HI injured rats [2]; [8]): 0.00 ± 0.00 | tissue damage score, LC (lateral cortex) (HI injured rats [2]; [8]): 0.00 ± 0.00 | tissue damage score, Striat (HI injured rats [2]; [8]): 0.05 ± 0.05 | tissue damage score, CA1-2 (HI injured rats [2]; [9]): 0.54 ± 0.34 | tissue damage score, CA3 (HI injured rats [2]; [9]): 0.67 ± 0.39 | tissue damage score, CA4 (HI injured rats [2]; [9]): 0.58 ± 0.40 | tissue damage score, DG (dentate gyrus) (HI injured rats [2]; [9]): 0.33 ± 0.33 | tissue damage score, LC (lateral cortex) (HI injured rats [2]; [9]): 0.02 ± 0.02 | tissue damage score, Striatum (HI injured rats [2]; [9]): 0.37 ± 0.25 | tissue damage score, CA1-2 (HI injured rats [2]; [10]): 0.65 ± 0.32 | tissue damage score, CA3 (HI injured rats [2]; [10]): 0.62 ± 0.29 | tissue damage score, CA4 (HI injured rats [2]; [10]): 0.38 ± 0.25 | tissue damage score, DG (dentate gyrus) (HI injured rats [2]; [10]): 0.00 ± 0.00 | tissue damage score, LC (lateral cortex) (HI injured rats [2]; [10]): 0.06 ± 0.05 | tissue damage score, Striatum (HI injured rats [2]; [10]): 0.57 ± 0.25 | tissue damage score, CA1-2 (HI injured rats [2]; [11]): 1.68 ± 0.56 | tissue damage score, CA3 (HI injured rats [2]; [11]): 1.04 ± 0.41 | tissue damage score, CA4 (HI injured rats [2]; [11]): 1.08 ± 0.51 | tissue damage score, DG (dentate gyrus) (HI injured rats [2]; [11]): 0.63 ± 0.36 | tissue damage score, LC (lateral cortex) (HI injured rats [2]; [11]): 0.13 ± 0.13 | tissue damage score, Striat (HI injured rats [2]; [11]): 0.83 ± 0.27 | damage score vs vehicle (HI injured rats [3]; mild HI injury, FIG. 8): substantial and statistically significant reduction | effective window of opportunity (HI injured rats [3]; post injury): 1 to 24 h | damage score vs vehicle (HI injured rats [3]; severe HI injury, FIG. 9): reproducible decrease | number of GFAP positive cells, ipsilateral vs contralateral hippocampus (HI injured rats [4]): no difference | number of isolectin B-4 positive cells (microglia) (HI injured rats [4]; injured hippocampus): 2.9±0.4 cells | number of PCNA positive cells (HI injured rats [4]; ipsilateral hippocampus): 30.9±5.1 cells | number of TUNEL positive cells in the hippocampus (HI injured rats [4]; ipsilateral hippocampus): 10.6±0.7 cells | number of TUNEL positive cells, CA3 sub-region (HI injured rats [4]; ipsilateral hippocampus): 11.7±11.7 cells | number of caspase-3 positive cells in the hippocampus (HI injured rats [4]; ipsilateral hippocampus): 29.9±10.6 cells | number of caspase-3 positive cells, CA4 sub-region (HI injured rats [4]; ipsilateral hippocampus): 47.7±31.8 cells
